From PubChem BioAssay AID1688 (National Center for Advancing Translational Sciences (NCATS), 2009)
Out of some 220,000 compounds screened, about 2,400 (1.1%) were called active. The inconclusive results got no clear call from the source; some entries with a clear call stand among them for comparison. Calls follow the shape of the dose curve; as a rule, active = well fitted inhibition curve with a large enough effect; inconclusive = small, poorly fitted or top-dose-only effect, or effect the other way; inactive = no such curve, though single readings can be large or run the other way. Potencies of inconclusive entries are doubtful fits and often do not repeat.

Assay: qHTS Multiplex Assay to Identify Dual Action Probes in a Cell Model of Huntington: Aggregate Formation (GFP); also: nearly all actives have a fitted effect of over 60% in size
Details: PC12 HttQ103-GFP aggregates, Acumen cytometry, 40 h; activity change, negative = inhibition: at 46.1 µM (top of the series) unless noted
Outline: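 PC12/HTTQ103-GFP, ecdysone-inducible; teb 100 nM; cpd qHTS titration; GFP aggregates read on laser cytometer, Ex 488/Em 500-530 nm.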
% is scaled to controls: 0 for no effect and ±100 for the full control effect; potency is read from the fitted curve at half-maximal effect.

Structure (SMILES) | Potency | activity change, negative = inhibition
CC1(C)Cc2c(ccc3ccccc23)/C(=C/C(=O)N2CCCCC2)N1 | inconclusive: 15.8 µM [inhibitor, single point] | –
COc1cccc(Cn2cnc3c(NS(=O)(=O)c4ccc(Cl)cc4Cl)c(C)c(C)cc32)c1 | inconclusive: 35.5 µM [inhibitor, single point] | –
Cc1ccc(-c2cccc(C3CC=CC4C3C(=O)N(Cc3ccccc3)C4c3ccc(C(F)(F)F)cc3)c2)cc1 (centres undefined) | inconclusive: 5.62 µM [inhibitor, single point] | –
COCCn1c(-c2ccccc2)csc1=Nc1cccnc1 | inconclusive: 14.1 µM [inhibitor, partial curve] | –
Cc1cccc(NS(=O)(=O)c2cc(NC(=O)CC(=O)c3ccc([N+](=O)[O-])cc3)ccc2C)c1 | – | inactive: 12.2% [at 9.22 µM]
CCOC(=O)c1nc(Nc2ccccc2)c2ccccc2n1 | – | inactive: -6.36%
O/N=C1/CCc2nonc2/C1=N/O | inconclusive: 1.12 µM [inhibitor, single point] | –
N#CC1=C(N)NC(SCc2ccc(Br)cc2)=C(C#N)C12CCCCC2 | inconclusive: 35.5 µM [inhibitor, single point] | –
FC(F)(F)c1cnc(-c2cnc(-c3ccncc3)nc2)c(Cl)c1 | inconclusive: 22.4 µM [inhibitor, single point] | –
O=C(CCCN1C(=O)/C(=C/c2cccc(Br)c2)SC1=S)Nc1cccnc1 | inconclusive: 35.5 µM [inhibitor, single point] | –
Cc1cccc(C(=O)Oc2ccccc2/C=N/NC(=O)c2ccc(NC(=O)C(C)(C)C)cc2)c1 | inconclusive: 25.1 µM [inhibitor, single point] | –
CC(C(=O)N1CCOCC1)N1C(=O)c2cccc3cccc(c23)C1=O (centres undefined) | – | inactive: 2.71% [at 9.22 µM]
Cc1cc(C)c(C(=O)COC(=O)c2cccnc2Cl)c(C)c1 | – | inactive: 8.19%
CCOC(=O)c1nc(C)n(-c2ccc([N+](=O)[O-])cc2)n1 | inconclusive: 2.24 µM [activator, partial curve] | –
COC(=O)c1ccc2c(=O)n(C3CCCCC3)c(SCC#N)nc2c1 | inconclusive: 2.82 µM [activator, full curve, poor fit] | –
C=CCNC(=O)c1cc2cccc(OC)c2oc1=O | – | inactive: 19%
N#CC1=C(SCC(=O)NCc2ccccc2)NC(=O)CC1c1ccco1 (centres undefined) | – | inactive: 21%
CC(=O)NC(C)C(=O)OCC(=O)Nc1ccc(Br)cc1 (centres undefined) | – | inactive: -3.2% [at 9.22 µM]
O=C(C1CCCN(S(=O)(=O)Cc2ccccc2)C1)N1CCC(Cc2ccccc2)CC1 (centres undefined) | inconclusive: 14.1 µM [inhibitor, single point] | –
CC(Oc1ccccc1Cl)C(=O)/C=C/N(C)C (centres undefined) | – | inactive: 3.61%
CSc1nnc(CCNC(=O)OC(C)(C)C)o1 | inconclusive: 5.62 µM [activator, single point] | –
Nn1c(-c2cccs2)nc2sc3c(c2c1=O)CCCC3 | inconclusive: 15.8 µM [inhibitor, single point] | –

Structure (SMILES) | Potency | activity change, negative = inhibition
CSc1cccc(NC(=S)N(CCCN2CCCC2)Cc2cccn2Cc2ccc(Cl)cc2)c1 | inconclusive: 28.2 µM [inhibitor, single point] | –
COc1cccc(OC)c1C(=O)N1CCN(Cc2ccccc2C(F)(F)F)CC1 | inconclusive: 28.2 µM [inhibitor, partial curve] | –
CCOC(=O)c1cccnc1NC(=O)c1ccccc1 | inconclusive: 6.31 µM [activator, single point] | –
O=S(=O)(Cc1cc(Cl)nc(-c2ccncc2)n1)c1ccccc1 | inconclusive: 35.5 µM [inhibitor, single point] | –
Cc1ccc(S(=O)(=O)N/N=C\c2ccc([N+](=O)[O-])o2)cc1 | inconclusive: 35.5 µM [activator, single point] | –
O=C(Nc1nccs1)c1cc(-c2ccncc2)nc2ccccc12 | inconclusive: 3.55 µM [activator, partial curve] | –
Cc1c(CNCC(C)c2ccccc2)c(C(=O)O)c(C)n1Cc1ccccc1 (centres undefined) | inconclusive: 3.98 µM [activator, full curve, poor fit] | –
COc1ccc(C2CC(C(F)(F)F)n3nc(C(=O)NCc4c(C)nn(C)c4C)c(Cl)c3N2)cc1 (centres undefined) | active: 8.91 µM | –
O=[N+]([O-])c1ccc(/C=C/C2=NN(c3ccccc3)C(c3ccco3)C2)cc1 (centres undefined) | inconclusive: 35.5 µM [inhibitor, single point] | –
O=C(N/N=C/c1ccco1)c1cccc([N+](=O)[O-])c1 | inconclusive: 20 µM [inhibitor, single point] | –
O=C(CSc1nc2ncccc2[nH]1)c1ccc2c(c1)OCO2 | – | inactive: -2.65% [at 9.22 µM]
Cc1ccc(N2C(=O)CC(N3CCN/C3=C3\CC/C(=C\c4ccccc4)C3=O)C2=O)cc1 (centres undefined) | – | inactive: -11.6%
C/C=C/C=C/C(=O)OCC(=O)Nc1ccc(Cl)cc1 | inconclusive: 5.62 µM [activator, single point] | –
COc1ccc2cc3c(N)nn(C(=O)Cc4ccccc4OC)c3nc2c1 | active: 4.47 µM | –
CCOc1ccc2[nH]c(=O)c(C(c3nnnn3CC3CCCO3)N3CCc4ccccc4C3)cc2c1 (centres undefined) | – | inactive: 3.69%
CCOP(=O)(OCC)c1nc(/C=C/c2ccccc2)oc1NCc1ccccc1 | inconclusive: 35.5 µM [inhibitor, single point] | –
CCN1CCN(c2nc3c(C)cccn3c(=O)c2/C=C(\C#N)S(=O)(=O)c2ccccc2)CC1 | inconclusive: 0.794 µM [activator, single point] | –
CC1=CC(C)(C)N(C(=O)c2ccc(F)cc2)c2cc3c(cc21)OCO3 | inconclusive: 11.2 µM [inhibitor, partial curve, poor fit] | –
O=C(NC(=S)Nc1cccc(Cl)c1N1CCOCC1)c1cccs1 | inconclusive: 10 µM [activator, partial curve] | –
CCC(=O)NNc1ncnc2c1cnn2-c1ccccc1 | – | inactive: -4.58%
CCC(=O)Nc1ccc(Cl)c(NC(=O)C(C)C)c1 | – | inactive: -18.7%
COc1ccc2nc(N3C(=O)CC(Cc4ccc(Cl)cc4)C3=O)sc2c1 (centres undefined) | inconclusive: 25.1 µM [inhibitor, single point] | –

Some of the entries so far, as tab-separated lines:
Structure (SMILES)	Potency	activity change, negative = inhibition
O=C(CCCN1C(=O)/C(=C/c2cccc(Br)c2)SC1=S)Nc1cccnc1	inconclusive: 35.5 µM [inhibitor, single point]	–
C/C=C/C=C/C(=O)OCC(=O)Nc1ccc(Cl)cc1	inconclusive: 5.62 µM [activator, single point]	–
CCC(=O)NNc1ncnc2c1cnn2-c1ccccc1	–	inactive: -4.58%
